The nature of the test: qHTS Assay for Lipid Storage Modulators in Drosophila S3 Cells.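 For cell number change: cells counted by Cell Tracker Red CMTPX staining in the red channel.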 The following applies: BODIPY lipid droplet fluorescence, 18-24 h; for cell number change: measured here: cell count max response, cells fed with added oleic acid. The essentials: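 Drosophila S3 cells got compounds at several concentrations plus oleic acid (400 uM solution). Laser-scanning cytometry with 488 nm excitation read lipid droplets at 500-530 nm and cells at 575-640 nm. Percent activity was relative to 20 uM Triacsin C.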
In general terms: Quantitative high-throughput screening tests each substance at several concentrations.

Setting [1] is: measured here: lipid fluorescence (Fed channel) AC50, cells fed with added oleic acid.
Setting [2] is: measured here: cell number channel AC50, cells fed with added oleic acid.

Molecules are shown by their SMILES. Some of the results follow. Further columns of the screen follow, without active or inactive calls. Most of these compounds were active or inconclusive in the main read-out, so they are no random draw. Potencies come from curve fits of mixed quality, noted in brackets.

Broadly, the AC50 is the concentration giving half of the maximal activity seen. High values mean weaker potency, low ones greater potency. Take `Cc1ccc(C)c(NC(=O)CN(C)C(=O)c2ccccc2Cc2ccccc2)c1`: the AC50 under setting [1] was 2.06 µM [falling, single point].
Regarding `COc1ccc(C2CC(C(F)(F)F)n3ncc(C(=O)NCc4cccnc4)c3N2)cc1OC` (stereo not given), the cell number change turned out to be 164%. Also, under setting [1], the half-maximal activity concentration (AC50) is 0.58 µM [rising, single point].
As to `CCCCCCCCCCCC(=O)c1c(O)cccc1O`, the cell number change was -4.21%. Moreover, the AC50 under setting [2] was 0.092 µM [falling, full curve, poor fit]. For the same molecule, the AC50 under setting [1] was 0.0731 µM [falling, full curve, poor fit].
Regarding `O=C(COc1ccc(Cl)cc1)NCc1cn2cc(Cl)ccc2n1`, the AC50 runs as follows: under setting [2], 6.51 µM [falling, single point]; under setting [1], 6.51 µM [falling, single point].
For `Cc1ccc(N/N=C2\CCS(=O)(=O)c3sccc32)cc1`, the cell number change was -27.7%. For the same molecule, the concentration at half-maximal activity (AC50) under setting [1] was 2.59 µM [falling, full curve, poor fit].
Consider `COc1ccc(N(CC(=O)NC2CCCC2)C(=O)c2ccc(C)s2)cc1OC`, for which the cell number change is 16.7%. Also, under setting [1], the AC50 was 29.1 µM [rising, single point].
Regarding `COC(=O)c1cccc(NC(N)=S)c1`, the AC50 under setting [1] is 0.58 µM [falling, single point].
Consider `CCCCOC(=O)/C=C/c1c(C)[nH]c(=O)[nH]c1=O`, for which the AC50 under setting [1] is 2.06 µM [rising, full curve, poor fit].
With `CC(=O)c1ccc(N(C(=O)c2csnn2)C(C(=O)NC2CCCC2)c2ccccc2)cc1` (stereo not given), the cell number change worked out at 5.71%. Also, the AC50 under setting [1] was 29.1 µM [rising, single point].
For `CN(C)CCCCNCCCNC(=O)/C=N\O`, the cell number change was -6.47%. The AC50 under setting [1] is 6.51 µM [falling, single point].
In the case of `Cc1ccc(S(=O)(=O)c2nc(Nc3ccccc3)sc2Cl)cc1`, the cell number change was -24.1%. Under setting [1], the concentration at half-maximal activity (AC50) is 18.4 µM [falling, partial curve, poor fit].
In the case of `CC(CN1CCCCC1)OC(=O)C(C)(c1ccccc1)c1ccccc1` (stereo not given), the cell number change is -9.65%. Moreover, under setting [1], the AC50 is 0.731 µM [falling, single point].
For `Cc1ccc(C)c(NC(=O)CCC(=O)N/N=C/c2cccnc2)c1`, the cell number change is 19.3%. Also, under setting [1], the AC50 was 29.1 µM [rising, single point].
Consider `Cn1c(=O)c(C(=O)CCl)c(N)n(Cc2ccccc2)c1=O`, for which the cell number change is 3.46%. For the same molecule, the AC50 under setting [1] was 0.461 µM [rising, full curve].
Turning to `O=C(NCCCN1CCCC1=O)c1ccc(S(=O)(=O)Nc2ccccc2)cc1`, the cell number change is 20.6%. In addition, the AC50 under setting [1] is 0.461 µM [rising, full curve].
Regarding `COc1ccc(N2CCN(CC(=O)c3ccc(Cl)cc3)CC2)cc1`, under setting [1], the AC50 was 0.13 µM [falling, full curve, poor fit].
Regarding `Cc1cc(C)cc(OCC(=O)NC2CCCc3ccccc32)c1` (stereo not given), the cell number change was -25.7%. In addition, the concentration at half-maximal activity (AC50) under setting [1] was 8.2 µM [falling, partial curve, poor fit].
For the molecule `Cc1ccc(NC(=O)C(Nc2ccccc2)c2ccccc2)cc1` (stereo not given), the cell number change is 10.4%. Also, the AC50 under setting [1] is 0.58 µM [falling, single point].
For the molecule `CCN(CC(=O)Nc1c(F)cccc1F)C(=O)CSCC(=O)Nc1cccc(C)c1`, the concentration at half-maximal activity (AC50) under setting [1] is 4.11 µM [falling, single point].
For the molecule `O=C(/C=C/c1ccc(Cl)c([N+](=O)[O-])c1)Nc1cccc(NC(=O)c2ccco2)c1`, the cell number change came to 11.7%.
In the case of `COc1ccc(C(=O)N2CCN(c3ncccn3)CC2)cc1[N+](=O)[O-]`, the cell number change was -4.4%. For the same molecule, the AC50 under setting [1] was 29.1 µM [rising, single point].
As to `Cc1cc(C(=O)NN)n[nH]1`, the cell number change came to 31.4%. Further, the AC50 under setting [2] is 29.1 µM [rising, single point]. In addition, under setting [1], the AC50 is 0.291 µM [rising, full curve].
As for `CCCCc1nc2cc(Cl)ccc2o1`, the cell number change is -11.3%. Further, the concentration at half-maximal activity (AC50) under setting [1] is 29.1 µM [falling, single point].
Take `Cc1c[n+](CC(=O)c2ccccc2)cs1`: the cell number change came out at 5.84%. For the same molecule, under setting [1], the AC50 is 6.51 µM [falling, single point].
As for `COc1ccc(-c2nnc(-c3cc4c(ccc5ccccc54)oc3=O)o2)cc1`, the cell number change stood at 52.4%. Also, the AC50 under setting [2] was 0.58 µM [rising, partial curve, poor fit]. Further, the AC50 under setting [1] was 13 µM [rising, partial curve].
As for `O=C(O)c1cccc(-n2cnnn2)c1`, the cell number change is -1.65%.
As to `COc1ccc(NS(=O)(=O)c2cc(NC(=O)c3ccc(F)cc3)ccc2OC)cc1`, the cell number change amounted to 33.3%. In addition, under setting [2], the AC50 was 1.64 µM [rising, partial curve]. The AC50 under setting [1] is 3.66 µM [falling, full curve].
For `COc1ccc(NC(=O)CN(C)C(=O)C2CC(=O)N(c3cccc4ccccc34)C2)cc1` (stereo not given), the cell number change is -4.79%.
As for `O=C(c1cc2cc(Cl)ccc2o1)N1CCCC1`, the cell number change is -1.68%. The AC50 under setting [1] was 0.00517 µM [rising, full curve, poor fit].
In the case of `Cc1ccc(N(Cc2ccccc2)C(=O)c2ccc(F)c(S(=O)(=O)N3CCOCC3)c2)cc1`, the half-maximal activity concentration (AC50) under setting [1] is 0.411 µM [rising, single point].
As for `COc1ccc(NC(=O)C2CCCN2S(=O)(=O)c2ccc3c(c2)CC(C)N3C(C)=O)cc1OC` (stereo not given), the cell number change was -13.5%.
`CCOc1cc(C(=O)Nc2cc3c(cc2N2CCCC2)n(C)c(=O)n3C)cc(OCC)c1OCC`: the concentration at half-maximal activity (AC50) reads like this: under setting [2], 3.66 µM [rising, partial curve]; under setting [1], 1.3 µM [rising, full curve].
As to `CCOC(=O)c1c(NC(=O)C2c3ccccc3Oc3ccccc32)sc(C(N)=O)c1C`, the AC50 reads like this: under setting [2], 6.51 µM [rising, single point]; under setting [1], 5.8 µM [rising, single point].
Take `O=C(c1cc(-c2cccc(Cl)c2)on1)N1CCN(c2ccccc2)CC1`: the cell number change stood at 22.9%. The AC50 under setting [1] is 25.9 µM [rising, single point].
For `O=S(=O)(c1ccccc1)N(F)S(=O)(=O)c1ccccc1`, the cell number change is -10.5%. Moreover, under setting [2], the AC50 was 0.651 µM [falling, single point]. The AC50 under setting [1] is 0.461 µM [falling, full curve, poor fit].
In the case of `CSc1ncc(CN2CCc3c([nH]c4ccccc34)C2c2cccc(O)c2)cn1` (stereo not given), the cell number change was -33.8%. The AC50 under setting [2] is 29.1 µM [falling, single point]. Moreover, the AC50 under setting [1] is 3.26 µM [falling, partial curve].
On to `Cn1c(C(=O)c2ccncc2)cc2ccccc21`, for which the cell number change was found to be 60.6%. In addition, the AC50 under setting [2] was 16.4 µM [rising, single point]. The AC50 under setting [1] is 0.00461 µM [falling, full curve, poor fit].
Turning to `CCOc1ccc(S(=O)(=O)Nc2cccc(C(=O)N3CCN(c4cccc(OC)c4)CC3)c2)cc1`, the cell number change was found to be 126%. In addition, the AC50 under setting [2] was 18.4 µM [rising, single point].
As to `CN1CC(=O)N(CC(=O)Nc2ccc3c(c2)CCC3)C1=O`, the cell number change came out at 22.6%. In addition, under setting [1], the AC50 was 6.51 µM [falling, single point].
Consider `O=C(NCc1ccco1)/C(=C/c1ccccc1)NC(=O)c1ccco1`, for which the cell number change amounted to 4.78%. Under setting [1], the AC50 was 0.58 µM [rising, single point].
As for `C=CCNC(=O)COC(=O)c1cccnc1Nc1ccccc1F`, the cell number change was 18.8%. Also, the concentration at half-maximal activity (AC50) under setting [2] is 3.26 µM [rising, single point]. Also, the concentration at half-maximal activity (AC50) under setting [1] is 6.51 µM [rising, partial curve, poor fit].
Take `COc1ccc(N(C(=O)c2snc(C(N)=O)c2N)C(C(=O)NCc2ccccc2)c2ccc(O)cc2)cc1OC` (stereo not given): the cell number change is 24.2%. Further, the AC50 under setting [1] was 0.13 µM [rising, full curve, poor fit].
Regarding `c1ccc(-n2c(-c3ccncc3)nnc2N2CCOCC2)cc1`, the cell number change was -9.17%. For the same molecule, the AC50 under setting [1] is 29.1 µM [falling, single point].
Take `Cc1ccccc1NC(=O)COC(=O)c1ccc(S(=O)(=O)N2CCCCCC2)cc1`: the cell number change was 23.3%.
Consider `COc1ccc(CCN2C(=O)CC(NC34CC5CC(CC(C5)C3)C4)C2=O)cc1OC` (stereo not given), for which the cell number change was -4.35%. Further, under setting [1], the AC50 was 6.51 µM [falling, single point].
On to `CSc1cccc(NC(=O)COC(=O)c2ccccn2)c1`, for which the cell number change amounted to 6.75%. Also, under setting [2], the AC50 was 0.58 µM [falling, full curve]. Moreover, under setting [1], the AC50 was 0.651 µM [falling, full curve].
In the case of `CC1(C)NC(C)(C)C(O)(C(N)=O)C1=O` (stereo not given), the cell number change is -17.8%. Further, the AC50 under setting [1] is 0.231 µM [falling, full curve, poor fit].
`Clc1cc2nc[nH]c2cc1Cl`: the cell number change was 35.4%. Also, under setting [2], the AC50 was 18.4 µM [rising, single point]. Also, the AC50 under setting [1] was 23.1 µM [rising, single point].
As for `Fc1ccccc1N1CCN(C2CCN(Cc3c[nH]c4ccccc34)CC2)CC1`, the cell number change was found to be 83.8%. The AC50 under setting [2] was 18.4 µM [rising, partial curve, poor fit]. Further, the AC50 under setting [1] is 18.4 µM [rising, partial curve].
On to `Cn1c(N2CCC(C(N)=O)CC2)nc2c1c(=O)n(Cc1cccc(Br)c1)c(=O)n2C`, for which the cell number change stood at 1.2%.
As to `Cn1c(=O)[nH]c(=O)c2c1nc(Sc1ncccn1)n2CCCc1ccccc1`, the cell number change is -5.03%. Also, under setting [1], the AC50 is 6.51 µM [rising, partial curve].
Regarding `CC(=O)NC(CC(=O)N(C)Cc1c(F)cccc1Cl)c1ccccc1` (stereo not given), the cell number change was found to be 3.73%. Besides, the half-maximal activity concentration (AC50) under setting [2] was 0.00461 µM [falling, full curve, poor fit]. Besides, the AC50 under setting [1] is 1.3 µM [falling, full curve, poor fit].
`COC(=O)c1c(NC(=O)Cn2cnc([N+](=O)[O-])n2)sc2c1CCC(C)C2` (stereo not given): the cell number change is 12.1%. The half-maximal activity concentration (AC50) under setting [2] was 4.11 µM [falling, single point].
As for `Cc1ccc(S(=O)(=O)Nc2ccc(N3CCOCC3)cc2)cc1C`, the cell number change was -5.71%.
`COc1ccccc1NC(=O)Cn1c(=O)n(CCc2c[nH]c3ccccc23)c(=O)c2cccnc21`: the cell number change is -10.4%. Further, the AC50 under setting [1] is 0.461 µM [rising, full curve, poor fit].
With `Cc1ccc(C2=N/C(=C\c3cccnc3)C(=O)O2)cc1`, the cell number change stood at 50%. In addition, the AC50 under setting [2] was 16.4 µM [rising, single point].
With `COc1ccc(C(=O)OCC(=O)Nc2ccc(N3CCOCC3)cc2)cc1`, the cell number change is 24.5%. Moreover, the AC50 under setting [1] is 29.1 µM [rising, single point].
Turning to `CC(OC(=O)c1cc(=O)[nH]c2ccccc12)C(=O)N1C(C)CCCC1C` (stereo not given), the cell number change was 10.6%. In addition, under setting [2], the AC50 is 6.51 µM [falling, single point].

The record behind these values is PubChem BioAssay AID2685 (National Center for Advancing Translational Sciences (NCATS), 2010).
